Laboratory results: PubChem BioAssay AID743121 (NCATS, 2013)

- Screen: 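Knock-downs that sensitise breast cancer cells to camptothecin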 (primary screen)
- Cell system: MDA-MB-231 cells, a human breast cancer line
- Knock-down reagent: single siRNA against human genes, 20 nM siRNA (0.8 pmol per well)
- Duration: 120 h (drug added 48 h after transfection, read 72 h later)
- Conditions: camptothecin 20 nM (about EC30) for 72 h; vehicle 0.1% DMSO in parallel plates
- Detection: 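Cell viability by ATP luminescence (CellTiter-Glo) as % of non-targeting siRNA wells, and the log2 ratio of viability without drug over viability with camptothecin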
- Direction: log2 vehicle/camptothecin viability: higher = stronger sensitisation to camptothecin
- Active means: 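Each gene scored by redundant siRNA activity (RSA) over its individual siRNA ratios; a gene is called active at p < 0.001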
In all, the deposit lists about 26,000 reagents; below is an unselected part. Over the whole deposit, 167 (0.63%) were called active. 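Calls are per gene from RSA p-values that are not deposited; an individual active-marked siRNA can sensitise only weakly.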 A number with no mark means an inactive call. The numbers tell different reagents against one gene apart. Further read-outs or replicates are left out here.

AXIN2 #1 — log2 vehicle/camptothecin viability: -0.144
AXIN2 #2 — log2 vehicle/camptothecin viability: -0.508
AXIN2 #3 — log2 vehicle/camptothecin viability: -0.469
AXIN2 #4 — log2 vehicle/camptothecin viability: -0.307
CYP17A1 #1 — log2 vehicle/camptothecin viability: -0.432
CYP17A1 #2 — log2 vehicle/camptothecin viability: -0.388
CYP17A1 #3 — log2 vehicle/camptothecin viability: -0.126
RPP38 #1 — log2 vehicle/camptothecin viability: -0.409
RPP38 #2 — log2 vehicle/camptothecin viability: -0.316
RPP38 #3 — log2 vehicle/camptothecin viability: -0.198
RPP38 #4 — log2 vehicle/camptothecin viability: -0.128
EPHX1 #1 — log2 vehicle/camptothecin viability: -0.0161
EPHX1 #2 — log2 vehicle/camptothecin viability: -0.326
EPHX1 #3 — log2 vehicle/camptothecin viability: -0.00691
EPHX1 #4 — log2 vehicle/camptothecin viability: 0.397
HRH2 #1 — log2 vehicle/camptothecin viability: -0.496
HRH2 #2 — log2 vehicle/camptothecin viability: -0.0226
HRH2 #3 — log2 vehicle/camptothecin viability: -0.317
HRH2 #4 — log2 vehicle/camptothecin viability: -0.228
PLA1A #1 — log2 vehicle/camptothecin viability: 0.29
PLA1A #2 — log2 vehicle/camptothecin viability: -0.0658
PLA1A #3 — log2 vehicle/camptothecin viability: 0.135
PLA1A #4 — log2 vehicle/camptothecin viability: -0.161
CELA3B #1 — log2 vehicle/camptothecin viability: -0.324
CELA3B #2 — log2 vehicle/camptothecin viability: -0.114

4 entries already listed, ordered by “log2 vehicle/camptothecin viability”, ascending:
CELA3B #1 — log2 vehicle/camptothecin viability: -0.324
PLA1A #4 — log2 vehicle/camptothecin viability: -0.161
PLA1A #2 — log2 vehicle/camptothecin viability: -0.0658
PLA1A #3 — log2 vehicle/camptothecin viability: 0.135
